Measured values: patent US20230236192A1
Results are given in words; binding and its absence hold for the method and conditions named.

Amino acid sequences for entries named in this document (tags omitted). A change or cut given only in a name is not applied to a line headed by its entry.
UniProt Q9Y5Y6: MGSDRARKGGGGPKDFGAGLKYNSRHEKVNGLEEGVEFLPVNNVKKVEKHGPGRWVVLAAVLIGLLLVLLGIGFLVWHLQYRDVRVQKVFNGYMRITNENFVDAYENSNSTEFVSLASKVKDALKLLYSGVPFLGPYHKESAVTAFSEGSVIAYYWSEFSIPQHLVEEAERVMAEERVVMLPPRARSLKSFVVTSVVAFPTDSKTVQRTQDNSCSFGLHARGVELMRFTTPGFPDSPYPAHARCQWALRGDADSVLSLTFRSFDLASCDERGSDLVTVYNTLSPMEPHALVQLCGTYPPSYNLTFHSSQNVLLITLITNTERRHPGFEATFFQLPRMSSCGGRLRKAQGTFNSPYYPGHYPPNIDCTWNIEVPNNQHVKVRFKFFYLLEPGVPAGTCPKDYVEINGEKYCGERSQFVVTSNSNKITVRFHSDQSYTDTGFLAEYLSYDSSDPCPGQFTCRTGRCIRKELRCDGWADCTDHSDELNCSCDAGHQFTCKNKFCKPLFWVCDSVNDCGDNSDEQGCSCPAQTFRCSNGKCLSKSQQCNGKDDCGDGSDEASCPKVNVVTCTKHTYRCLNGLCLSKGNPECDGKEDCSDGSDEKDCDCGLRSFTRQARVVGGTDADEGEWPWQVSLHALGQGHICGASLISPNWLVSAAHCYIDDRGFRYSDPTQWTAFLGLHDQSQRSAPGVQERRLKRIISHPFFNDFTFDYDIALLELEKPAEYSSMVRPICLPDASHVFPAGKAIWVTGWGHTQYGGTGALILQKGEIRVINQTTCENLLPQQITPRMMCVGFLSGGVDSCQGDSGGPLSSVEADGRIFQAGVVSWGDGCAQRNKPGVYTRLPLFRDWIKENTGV

How the values were obtained:
[1] = target: full-length zymogen (hepsin); experiment: sandwich ELISA screening
Matriptase = Matriptase (UniProt Q9Y5Y6); experiment: condition: assayed at 280 ng/ml; 10 ng/ml sensitivity; Hepsin sandwich ELISA, recombinant protein, 8 wells

B1: mAb 5B8 (antibody, V domains shown)
VH: DVQLVESGGDLVQPGESRKLSCAASGFTFSSFGMHWVRQAPEKGLEWVAYISSGSSAIYYADTVKGRFTISRDNPKNTLFLHMTSLRSEDTAIYYCAGSNWDYFDYWGQGTTLTVSS
VL: DIVMSQSPSSLAVSAGEKVTMSCKSSQSLLNSRIRKNYLAWYQQKPGQSPKLLIYWASTRESGVPDRFTGSGSGTDFTLTISSVQAEDLAVYYCKQSYNLWTFGGGTKLEIK
- binding [1]: no binding
- binding (Matriptase): no binding
